Data from US5656721A, “Peptide derivatives” (Sandoz Ltd., priority 1986, dated 1997).
Part of at least one peptide drawing is inferred or uncertain, most often the ends. Residues, ends and D or L forms follow the SMILES beside them. *: point of attachment. Pentanoyl(4-Me) = CC(C)CCC(=O)*

Assays:
GH level in the serum = assay: GH-reducing activity in male rats having oestradiol implants; type: in vivo; details: oestradiol-implanted male rats
Procedure: The GH-reducing activity of these compounds is also observed after oral application to male rats having oestradiol implants. In this test there are relatively small variations in the GH level, The test is carried out as follows:
A loop (length 50 mm .0. 3 mm) of silastic with 50 mg of oestradiol is implanted under ether anaesthesis under the dorsal skin of male rats which have a weight of ca. 300 g. At various times (1 to 6 months later), these animals are used repeatedly for tests. The test substance is administered either s.c. or orally.
Directly before, as well as at various times after administration of the substance, ca. 0.8 ml of blood is removed from the retro-orbital plexus. It is centrifuged and the GH level in the serum is determined by RIA.

[1] = system: calcium level in the blood; assay: Hypocalcemic activity, calcium level in the blood after i.v. administration; type: in vivo; details: dogs, 5 μg/kg
Excerpt: The sugar derivatives of calcitonin and of calcitonin analogues or derivatives according to the invention, more especially the derivatives of formula X reduce the calcium plasma level. Moreover, they are functional antagonists of the parathormone, and effect a positive calcium balance in the bones. The hypocalcemic activity of the new compounds may be measured in known manner, e.g. according to the method of M. Azria et al., reported in the Calcitonin 1984 Symposium, 24th October, Milan and published as "Short Communication" in "Current Clinical Practice Series" No. 42, Excerpta Medica 1986, page 104. In this method, a Ca^2+ -ion selective electrode is used, so that the content of calcium ions in the blood of young rabbits or dogs may be continuously measured. The compounds are administered i.v. at a dosage of from about 0.1 to about 10 micrograms/kg, e.g. conforming to ca. 1 international unit per kg. […]
It has for example been determined that each of the compounds of examples 37 and 38 have a duration of action that is much longer than with the unmodified peptide, when administered i.v. to dogs (5 μg/kg).

| SMILES | ID50 p.o. (GH level in the serum) [microgram/kg] | reduction in the calcium level in the blood after 6 hours [1] |
| --- | --- | --- |
| C[C@@H](O)[C@@H]1NC(=O)[C@H](CCCCN)NC(=O)[C@@H](Cc2c[nH]c3ccccc23)NC(=O)[C@H](Cc2ccccc2)NC(=O)[C@@H](NC(=O)[C@@H](Cc2ccccc2)NC(=O)[C@H]2OC(O)[C@H](O)[C@@H](O)[C@@H]2O)CSSC[C@@H](C(=O)N[C@H](CO)[C@@H](C)O)NC1=O (some centres unmarked) [Example 21] | 500 | – |
| CC(C)CCC(=O)N[C@@H](CO)C(=O)N[C@H](C(=O)N[C@@H](C)C(=O)N[C@H](C(=O)N[C@@H](CC(C)C)C(=O)NCC(=O)N[C@@H](CCCCN)C(=O)N[C@@H](CC(C)C)C(=O)N[C@@H](CO)C(=O)N[C@@H](CCC(N)=O)C(=O)N[C@@H](CCC(=O)O)C(=O)N[C@@H](CC(C)C)C(=O)N[C@@H](Cc1c[nH]cn1)C(=O)N[C@@H](CCCCN)C(=O)N[C@@H](CC(C)C)C(=O)N[C@@H](CCC(N)=O)C(=O)N[C@H](C(=O)N[C@@H](Cc1ccc(O)cc1)C(=O)N1CCC[C@H]1C(=O)N[C@@H](CCCNC(=N)N)C(=O)N[C@H](C(=O)N[C@@H](CC(N)=O)C(=O)N[C@H](C(=O)NCC(=O)N[C@@H](CO)C(=O)NCC(=O)N[C@H](C(=O)N1CCC[C@H]1C(N)=O)[C@@H](C)O)[C@@H](C)O)[C@@H](C)O)[C@@H](C)O)C(C)C)[C@@H](C)O [unmodified peptide, N^α -isocaproyl-des(1-4)-[Ala^7]salmon calcitonin, reference compound] ({Pentanoyl(4-Me)}-STAVLGKLSQELHKLQTYPRTNTGSGTP-NH2) | – | could no longer be detected |
